Laboratory results from publication PMC5493781.
These are yes or no findings as the source states them, for the method shown. Binding seen in cells or lysates may run through a third protein. Some results given as binding are weak or reduced against the parent protein; the word gives no strength. Where a sequence is shown, tags or fusion partners need not be part of it.

The chains behind the UniProt entries cited, without tags or fusion partners.
UniProt Q5VT06: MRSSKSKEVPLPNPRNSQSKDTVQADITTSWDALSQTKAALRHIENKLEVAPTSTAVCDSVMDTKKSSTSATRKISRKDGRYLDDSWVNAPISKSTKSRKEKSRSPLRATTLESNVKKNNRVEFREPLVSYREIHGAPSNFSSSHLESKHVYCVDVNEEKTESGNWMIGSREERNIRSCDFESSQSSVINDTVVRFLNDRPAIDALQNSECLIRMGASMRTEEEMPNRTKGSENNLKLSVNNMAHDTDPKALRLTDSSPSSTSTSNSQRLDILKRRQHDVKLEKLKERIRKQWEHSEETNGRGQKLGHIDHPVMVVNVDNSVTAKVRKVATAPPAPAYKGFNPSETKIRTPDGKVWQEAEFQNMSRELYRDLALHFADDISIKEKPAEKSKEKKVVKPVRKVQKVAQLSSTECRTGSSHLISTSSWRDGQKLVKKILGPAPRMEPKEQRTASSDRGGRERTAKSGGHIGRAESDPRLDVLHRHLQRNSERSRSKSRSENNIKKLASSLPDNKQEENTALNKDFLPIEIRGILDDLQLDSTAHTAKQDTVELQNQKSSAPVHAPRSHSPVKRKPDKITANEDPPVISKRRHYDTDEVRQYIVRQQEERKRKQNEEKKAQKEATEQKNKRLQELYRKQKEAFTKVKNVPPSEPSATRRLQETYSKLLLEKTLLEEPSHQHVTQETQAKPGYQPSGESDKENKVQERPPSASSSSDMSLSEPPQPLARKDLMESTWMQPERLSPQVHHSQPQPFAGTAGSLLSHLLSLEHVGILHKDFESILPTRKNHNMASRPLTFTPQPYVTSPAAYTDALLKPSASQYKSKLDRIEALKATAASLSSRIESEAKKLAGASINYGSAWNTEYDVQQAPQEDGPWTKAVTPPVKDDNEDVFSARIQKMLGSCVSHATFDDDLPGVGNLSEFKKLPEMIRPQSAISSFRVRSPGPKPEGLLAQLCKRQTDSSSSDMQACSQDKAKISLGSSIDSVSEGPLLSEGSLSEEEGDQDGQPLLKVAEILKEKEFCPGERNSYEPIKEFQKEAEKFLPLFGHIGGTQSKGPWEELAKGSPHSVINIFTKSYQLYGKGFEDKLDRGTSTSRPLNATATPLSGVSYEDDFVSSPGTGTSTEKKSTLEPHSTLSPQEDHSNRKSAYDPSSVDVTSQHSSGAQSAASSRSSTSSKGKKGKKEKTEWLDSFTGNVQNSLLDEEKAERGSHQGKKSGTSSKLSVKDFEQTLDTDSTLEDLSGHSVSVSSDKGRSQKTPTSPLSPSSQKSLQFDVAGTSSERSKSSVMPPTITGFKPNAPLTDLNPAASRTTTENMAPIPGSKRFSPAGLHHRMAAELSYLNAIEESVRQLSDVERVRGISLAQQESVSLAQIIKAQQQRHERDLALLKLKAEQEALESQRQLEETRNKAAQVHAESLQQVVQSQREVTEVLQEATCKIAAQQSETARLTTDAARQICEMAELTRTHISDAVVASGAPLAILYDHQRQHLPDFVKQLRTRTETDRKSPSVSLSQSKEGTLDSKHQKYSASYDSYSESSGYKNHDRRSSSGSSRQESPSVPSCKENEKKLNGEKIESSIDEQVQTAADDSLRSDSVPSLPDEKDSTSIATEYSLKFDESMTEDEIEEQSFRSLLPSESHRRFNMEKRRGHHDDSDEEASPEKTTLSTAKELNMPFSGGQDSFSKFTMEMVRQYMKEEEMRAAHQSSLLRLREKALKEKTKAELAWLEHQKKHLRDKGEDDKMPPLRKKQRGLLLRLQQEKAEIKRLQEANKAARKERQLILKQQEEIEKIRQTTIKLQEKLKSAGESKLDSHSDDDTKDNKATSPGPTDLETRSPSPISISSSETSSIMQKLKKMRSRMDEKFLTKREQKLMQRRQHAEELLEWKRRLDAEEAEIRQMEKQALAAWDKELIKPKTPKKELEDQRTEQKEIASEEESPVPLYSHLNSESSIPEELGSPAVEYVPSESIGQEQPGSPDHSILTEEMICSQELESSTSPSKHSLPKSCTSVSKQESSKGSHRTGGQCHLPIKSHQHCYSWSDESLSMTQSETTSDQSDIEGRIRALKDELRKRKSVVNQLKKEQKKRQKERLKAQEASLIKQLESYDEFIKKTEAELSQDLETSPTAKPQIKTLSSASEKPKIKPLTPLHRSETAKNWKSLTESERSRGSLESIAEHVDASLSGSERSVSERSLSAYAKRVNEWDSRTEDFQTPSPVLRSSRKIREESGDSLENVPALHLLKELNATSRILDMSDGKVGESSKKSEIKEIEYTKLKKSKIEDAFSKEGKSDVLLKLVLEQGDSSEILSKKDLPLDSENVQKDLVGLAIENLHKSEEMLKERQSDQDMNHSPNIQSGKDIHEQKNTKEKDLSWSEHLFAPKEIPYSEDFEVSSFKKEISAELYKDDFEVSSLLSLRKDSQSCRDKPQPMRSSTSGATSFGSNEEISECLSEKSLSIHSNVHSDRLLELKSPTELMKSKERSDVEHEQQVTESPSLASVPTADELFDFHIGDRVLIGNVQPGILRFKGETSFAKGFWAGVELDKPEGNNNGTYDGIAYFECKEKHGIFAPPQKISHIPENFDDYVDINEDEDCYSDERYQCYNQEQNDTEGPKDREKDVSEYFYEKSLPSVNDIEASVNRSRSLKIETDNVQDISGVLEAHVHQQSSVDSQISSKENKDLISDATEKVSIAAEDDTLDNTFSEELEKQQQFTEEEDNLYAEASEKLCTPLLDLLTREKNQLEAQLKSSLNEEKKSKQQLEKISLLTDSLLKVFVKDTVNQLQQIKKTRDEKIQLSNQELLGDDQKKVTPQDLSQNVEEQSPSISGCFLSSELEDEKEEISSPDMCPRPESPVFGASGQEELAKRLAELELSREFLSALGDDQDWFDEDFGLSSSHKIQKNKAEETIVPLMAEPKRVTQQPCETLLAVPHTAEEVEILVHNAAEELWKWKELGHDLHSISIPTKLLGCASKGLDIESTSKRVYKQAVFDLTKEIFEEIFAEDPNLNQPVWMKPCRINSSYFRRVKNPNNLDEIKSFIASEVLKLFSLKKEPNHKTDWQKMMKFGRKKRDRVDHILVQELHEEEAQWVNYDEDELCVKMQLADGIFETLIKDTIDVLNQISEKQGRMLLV

B1: FGFR1OP (FOP) (protein, UniProt O95684 1-399)
chain: MAATAAAVVAEEDTELRDLLVQTLENSGVLNRIKAELRAAVFLALEEQEKVENKTPLVNESLKKFLNTKDGRLVASLVAEFLQFFNLDFTLAVFQPETSTLQGLEGRENLARDLGIIEAEGTVGGPLLLEVIRRCQQKEKGPTTGEGALDLSDVHSPPKSPEGKTSAQTTPSKIPRYKGQGKKKTSGQKAGDKKANDEANQSDTSVSLSEPKSKSSLHLLSHETKIGSFLSNRTLDGKDKAGLCPDEDDMEGDSFFDDPIPKPEKTYGLRKEPRKQAGSLASLSDAPPLKSGLSSLAGAPSLKDSESKRGNTVLKDLKLISDKIGSLGLGTGEDDDYVDDFNSTSHRSEKSEISIGEEIEEDLSVEIDDINTSDKLDDLTQDLTVSQLSDVADYLEDVA

Legend:
[1] = biological target: T1, GFP-CEP19 (UniProt Q96LK0); test: co-IP; GFP fusions of CEP19 precipitated from transfected HEK 293 lysate with goat GFP antibody on Protein G Sepharose, 4 °C; 50 mM HEPES pH 8, 100 mM KCl, 2 mM EDTA, 10% glycerol, 0.1% NP-40, 1 mM DTT; blots for endogenous proteins
T1 sequence: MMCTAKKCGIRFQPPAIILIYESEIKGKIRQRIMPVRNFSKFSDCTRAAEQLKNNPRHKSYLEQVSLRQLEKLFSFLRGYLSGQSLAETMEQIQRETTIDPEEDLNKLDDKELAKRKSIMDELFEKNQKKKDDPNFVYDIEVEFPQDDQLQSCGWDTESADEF

[2] = biological target: T2, GFP-CEP19 R82* mutant (UniProt Q96LK0); test: as above
T2 sequence: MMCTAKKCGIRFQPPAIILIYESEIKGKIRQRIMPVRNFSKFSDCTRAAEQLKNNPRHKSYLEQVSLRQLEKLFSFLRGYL

Molecule	binding [1]	binding [2]
CEP350 (from UniProt Q5VT06 1-3117)	binds	no binding
B1	binds	no binding
